Results deposited as PubChem BioAssay AID1259308 (NCATS, 2017).

- Aim: 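Candidate targets for better recombinant protein yield in mammalian cells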 (primary screen)
- Cells: human HEK293 embryonic kidney cells stably expressing firefly luciferase (HEK-CMV-Luc2-Hygro)
- Knock-down reagent: single siRNA against human genes, 0.8 pmol siRNA per well
- Duration: 72 h
- Measured: 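Reporter luminescence and viable-cell signal on separate replicate plates, given as percent of non-targeting control and median/MAD z-scores, plus per-cell luciferase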
- Scale: total luciferase, z-score: higher = more reporter protein produced
- Hit rule: 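An siRNA counts as active if its total luciferase robust z-score exceeds 3; genes with two or more such siRNAs out of three were retested with fresh siRNAs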
- Calls: active = raised luciferase; inactive = no rise
In all, the deposit lists about 59,000 reagents; shown is a random part of them. In the full data, about 1,510 (2.6%) got an active call. 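Calls use total luciferase alone and ignore viability, so some active siRNAs may act by altering cell number.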 Entries without a mark were called inactive. The numbers tell different reagents against one gene apart. Further read-outs or replicates are left out here.

total luciferase, z-score, by target gene and reagent
SLC16A3: #1 -0.571; #2 3.41 (active); #3 0.33
GHITM: #1 0.453; #2 -0.45; #3 2.37
RNF207: #1 1.15; #2 0.476; #3 1.3
CEACAM3: #1 -0.391; #2 -0.346; #3 0.281
DCLRE1B: #1 0.0254; #2 0.78; #3 -0.223
CALM2: #1 -0.449; #2 1.12; #3 0.903
ZNF613: #1 0.0523; #2 -0.849; #3 -0.221
NUDT17: #1 -2.21; #2 1.73; #3 -0.583

Laid out differently: 9 of the entries above
DCLRE1B #1 → total luciferase, z-score = 0.0254
DCLRE1B #2 → total luciferase, z-score = 0.78
DCLRE1B #3 → total luciferase, z-score = -0.223
CALM2 #1 → total luciferase, z-score = -0.449
CALM2 #2 → total luciferase, z-score = 1.12
CALM2 #3 → total luciferase, z-score = 0.903
ZNF613 #1 → total luciferase, z-score = 0.0523
ZNF613 #2 → total luciferase, z-score = -0.849
ZNF613 #3 → total luciferase, z-score = -0.221

Continued:
total luciferase, z-score, by target gene and reagent
PLXDC2: #1 -1.95; #2 -0.814; #3 0.1
ERCC2: #1 1.15; #2 0.23; #3 -0.0646
DAG1: #1 -0.4; #2 0.747; #3 3.02 (active)
TMEM14EP: #1 -1.35; #2 -1.26; #3 -0.268
COG3: #1 0.159; #2 -0.138; #3 -2.1
PEBP1: #1 -0.285; #2 1.54; #3 0.133
RAP1GAP: #1 -0.885; #2 2.83; #3 1.88
MTSS2: #1 1.75; #2 -0.475; #3 0.324
CDCP2: #1 -1.07; #2 -2.64; #3 0.0976
ZSWIM2: #1 -0.95; #2 -0.65; #3 0.607
POPDC3: #1 -0.0916; #2 -0.388; #3 0.325
